The exact form of at least one protein or probe is not confirmed. For part of these data: The comparison behind a weaker result is the experiment's own reference, which may not be listed here. For part of these data: At least one verdict was read from the data and is not stated in words by the source.
Experiments:
[1] = target: cSID1 wild type (Caenorhabditis elegans) (UniProt Q9GZC8); test: cryo-EM; details: putative positively charged ion at S66/D70/D171; cryo-EM: 25 mM HEPES pH 7.4, 150 mM NaCl, 0.01% GDN, 100 uM dsRNA, 30 min; recombinant protein; protein details: His6 and FLAG after the signal peptide
[2] = target: cSID1 wild type (Caenorhabditis elegans) (UniProt Q9GZC8); test: EMSA; details: 0-24 uM protein, 1 uM dsRNA; EMSA: 25 mM Tris pH 8.0, 25 mM NaCl, room temperature, 60 min, 6% native gel in 0.5x TBE; recombinant protein; protein details: His6 and FLAG after the signal peptide
[3] = target: cSID1 third combined mutant (Caenorhabditis elegans) (UniProt Q9GZC8); test: EMSA; details: 0-24 uM protein, 1 uM dsRNA; EMSA: 25 mM Tris pH 8.0, 25 mM NaCl, room temperature, 60 min, 6% native gel in 0.5x TBE; recombinant protein; protein details: His6 and FLAG after the signal peptide

Chains of the proteins cited; added tags and fusions are not shown. Lines headed by an entry give the natural chain unless they say otherwise; changes in a name come on top. Residues count along the entry.
UniProt Q9GZC8, 18-776: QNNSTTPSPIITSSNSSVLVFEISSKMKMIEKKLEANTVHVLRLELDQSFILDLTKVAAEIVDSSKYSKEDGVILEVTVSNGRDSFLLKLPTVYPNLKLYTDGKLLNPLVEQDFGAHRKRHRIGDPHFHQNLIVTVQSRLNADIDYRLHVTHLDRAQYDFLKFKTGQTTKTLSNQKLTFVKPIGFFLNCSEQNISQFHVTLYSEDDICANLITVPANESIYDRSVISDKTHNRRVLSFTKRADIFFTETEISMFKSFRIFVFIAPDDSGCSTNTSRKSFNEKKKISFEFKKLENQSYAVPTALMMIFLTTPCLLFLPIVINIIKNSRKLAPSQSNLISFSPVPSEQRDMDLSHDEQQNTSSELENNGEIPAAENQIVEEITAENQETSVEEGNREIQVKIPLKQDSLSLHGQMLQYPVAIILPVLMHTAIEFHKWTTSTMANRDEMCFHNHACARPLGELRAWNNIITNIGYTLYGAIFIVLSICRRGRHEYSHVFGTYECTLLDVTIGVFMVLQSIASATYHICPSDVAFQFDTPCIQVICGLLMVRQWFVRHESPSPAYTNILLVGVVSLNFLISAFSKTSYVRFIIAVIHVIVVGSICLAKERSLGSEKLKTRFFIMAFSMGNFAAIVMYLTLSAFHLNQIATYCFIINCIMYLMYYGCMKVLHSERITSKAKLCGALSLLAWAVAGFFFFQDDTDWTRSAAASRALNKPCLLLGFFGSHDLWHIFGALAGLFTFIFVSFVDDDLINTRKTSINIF

Row | Sequence | binding result [1] | binding result [2] | binding result [3]
1 | GGCCGGGGGACGGGCUGGGAUGACAGAAGUCGCUUGGUGCAGAUCGGGAC / GUCCCGAUCUGCACCAAGCGACUUCUGUCAUCCCAGCCCGUCCCCCGGCC [50-bp dsRNA] | binds |  | 
2 | GGCCGGGGGACGGGCUGGGAUGACAGAAGUCGCUUGGUGCAGAUCGGGAC / GUCCCGAUCUGCACCAAGCGACUUCUGUCAUCCCAGCCCGUCCCCCGGCC [FAM 50-bp dsRNA] |  | binds | binds more weakly
